# The campaign covered roughly 390,000 compounds. About 820 (0.21%) were called active. This list was built around the results that the source calls inconclusive (neither active nor inactive); the mix of calls is not that of the screen. Calls follow the shape of the dose curve; as a rule, active = well fitted inhibition curve with a large enough effect; inconclusive = small, poorly fitted or top-dose-only effect, or another doubt; inactive = no such curve, though single readings can be large or run the other way. Potencies beside an inconclusive call are fits to weak or partial responses and may not hold up.
# Sequences of proteins named here, by UniProt entry; tags and fusion partners are left off.
# UniProt Q92830, whole entry, looked up: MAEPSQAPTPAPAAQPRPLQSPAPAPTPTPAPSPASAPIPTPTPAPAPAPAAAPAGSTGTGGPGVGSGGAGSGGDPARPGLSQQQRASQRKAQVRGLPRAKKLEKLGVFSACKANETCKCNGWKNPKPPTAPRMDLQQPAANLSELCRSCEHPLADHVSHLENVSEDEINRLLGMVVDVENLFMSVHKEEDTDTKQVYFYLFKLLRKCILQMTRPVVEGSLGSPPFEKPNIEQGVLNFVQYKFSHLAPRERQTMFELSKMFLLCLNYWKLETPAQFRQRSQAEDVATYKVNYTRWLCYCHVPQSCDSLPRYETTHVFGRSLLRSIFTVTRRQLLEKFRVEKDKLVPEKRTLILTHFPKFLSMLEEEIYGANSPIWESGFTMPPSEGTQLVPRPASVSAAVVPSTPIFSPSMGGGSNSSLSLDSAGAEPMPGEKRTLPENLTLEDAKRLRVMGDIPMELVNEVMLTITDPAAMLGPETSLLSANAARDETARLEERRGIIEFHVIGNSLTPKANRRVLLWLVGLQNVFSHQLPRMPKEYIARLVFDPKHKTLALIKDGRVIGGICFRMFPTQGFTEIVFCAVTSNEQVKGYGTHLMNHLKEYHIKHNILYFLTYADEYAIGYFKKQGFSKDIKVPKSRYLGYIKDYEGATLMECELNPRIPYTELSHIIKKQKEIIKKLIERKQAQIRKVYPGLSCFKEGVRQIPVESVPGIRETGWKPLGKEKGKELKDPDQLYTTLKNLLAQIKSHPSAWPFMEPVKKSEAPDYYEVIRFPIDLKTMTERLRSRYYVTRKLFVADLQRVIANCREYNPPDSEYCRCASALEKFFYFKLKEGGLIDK
# Target: Histone acetyltransferase KAT2A (Homo sapiens) (UniProt Q92830)
# Assay: qHTS Assay for Inhibitors of GCN5L2
# Conditions: GCN5L2 HAT assay, ThioGlo1 CoA-SH fluorescence; activity change, negative = inhibition: at 58.9 µM (top of the series) unless noted
# How it was run: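 Free CoA generated was detected with ThioGlo1 (50uM) fluorescence at Ex340nm/Em540nm, read immediately and after 20 min at room temperature. Enzyme, 20 nM in HEPES pH 7.5 buffer, saw compounds 15 min before adding 75uM H3(1-25) peptide and 70uM acetyl-CoA.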
# % is scaled to controls: 0 for no effect and ±100 for the full control effect; potency is read from the fitted curve at half-maximal effect.
Structure (SMILES),Potency,"activity change, negative = inhibition"
Cc1c(NC(=O)C23CC4CC(CC(C)(C4)C2)C3)c(=O)n(-c2ccccc2)n1C,active: 20 µM,
COc1cccc(-c2nnc3n2N=C(C(C)(C)C)CS3)c1,"inconclusive: 3.55 µM [inhibitor, partial curve]",
NC(N)=[N+]1CCc2ccccc2C1,"inconclusive: 39.8 µM [inhibitor, single point]",
O=C(NCCc1ccccc1)c1cnc2sc(N3CCCCC3)nn2c1=O,,inactive: 31.4%
O=C(O)CCN1C(=O)S/C(=C\c2cccnc2)C1=O,"inconclusive: 2.82 µM [inhibitor, full curve, poor fit]",
COc1ccc(C(=O)CN2CCN(c3ccc(F)cc3)CC2)cc1OC,"inconclusive: 5.62 µM [inhibitor, partial curve]",
O=C(NC(=S)N1CCOCC1)c1ccc(F)cc1,"inconclusive: 14.1 µM [inhibitor, partial curve]",
CCOc1ccc2nc(N3C(=O)/C(=C/c4ccccc4)NC3=S)sc2c1,,inactive: -4.38%
CCOC(=O)c1cnc2c(Cl)cc(Cl)cc2c1NCCCN1CCOCC1,"inconclusive: 28.2 µM [inhibitor, single point]",
Cc1c(OCC(=O)NCCN2CCOCC2)ccc2c(-c3ccccc3)cc(=O)oc12,"inconclusive: 7.08 µM [inhibitor, single point]",
CC(=O)c1ccc(NC(=O)CCc2c(C)nn(-c3ccc(N4CCCCC4)nn3)c2C)cc1,"inconclusive: 0.398 µM [inhibitor, partial curve, poor fit]",
COc1ccc(Cc2nc(=S)[nH][nH]2)cc1Br,"inconclusive: 39.8 µM [inhibitor, single point]",
Cc1ccc(C)c(NC(=S)NCc2cccs2)c1,,inactive: 0.556%
Cc1ccc(C2/C(=C(/O)c3cnn(-c4ccccc4)c3C)C(=O)C(=O)N2CCN2CCOCC2)o1 (stereo unspecified),,inactive: -17.1%
Nc1ccc(Oc2c(Cl)cccc2Cl)nc1,"inconclusive: 0.126 µM [inhibitor, full curve, poor fit]",
Cc1c(C(=O)O)sc2nc(SCC(=O)Nc3ccc(S(=O)(=O)NC(C)(C)C)cc3)[nH]c(=O)c12,,inactive: -6.18%
COc1cccc(-c2nccc(NCCc3c[nH]c4ccc(OC)cc34)n2)c1,"inconclusive: 39.8 µM [inhibitor, partial curve]",
Cc1ccnc(NS(=O)(=O)Cc2ccccc2)c1,"inconclusive: 0.891 µM [inhibitor, single point]",
Cc1nnc(N2CCOCC2)c2nn(-c3cccc(Cl)c3)c(C)c12,,inactive: -0.0073%
O=C(CSc1nnc(-c2ccc(O)cc2)o1)Nc1ccccc1Br,,inactive: -2.61%
CCCCNC(=O)CCCn1c(=O)[nH]c2ccc(Br)cc2c1=O,,inactive: 1.23%
CCOC(=O)/C=C1/N(C)c2ccccc2C1(C)C,,inactive: -6.67%
CCOC(=O)c1cccc(NC(=O)CCc2c(C)nn(-c3ccc(N4CCOCC4)nn3)c2C)c1,,inactive: 20.5%
C=CCOc1ccc(C(=O)Nc2ccccc2C(=O)N2CCCC2)cc1,"inconclusive: 2.82 µM [inhibitor, partial curve]",

# Part of the list above, as tab-separated lines:
Structure (SMILES)	Potency	activity change, negative = inhibition
Cc1c(NC(=O)C23CC4CC(CC(C)(C4)C2)C3)c(=O)n(-c2ccccc2)n1C	active: 20 µM	
NC(N)=[N+]1CCc2ccccc2C1	inconclusive: 39.8 µM [inhibitor, single point]	
O=C(NCCc1ccccc1)c1cnc2sc(N3CCCCC3)nn2c1=O		inactive: 31.4%
COc1ccc(C(=O)CN2CCN(c3ccc(F)cc3)CC2)cc1OC	inconclusive: 5.62 µM [inhibitor, partial curve]	
O=C(NC(=S)N1CCOCC1)c1ccc(F)cc1	inconclusive: 14.1 µM [inhibitor, partial curve]	
CCOc1ccc2nc(N3C(=O)/C(=C/c4ccccc4)NC3=S)sc2c1		inactive: -4.38%
CCOC(=O)c1cnc2c(Cl)cc(Cl)cc2c1NCCCN1CCOCC1	inconclusive: 28.2 µM [inhibitor, single point]	
CC(=O)c1ccc(NC(=O)CCc2c(C)nn(-c3ccc(N4CCCCC4)nn3)c2C)cc1	inconclusive: 0.398 µM [inhibitor, partial curve, poor fit]	
Nc1ccc(Oc2c(Cl)cccc2Cl)nc1	inconclusive: 0.126 µM [inhibitor, full curve, poor fit]	
Cc1c(C(=O)O)sc2nc(SCC(=O)Nc3ccc(S(=O)(=O)NC(C)(C)C)cc3)[nH]c(=O)c12		inactive: -6.18%
COc1cccc(-c2nccc(NCCc3c[nH]c4ccc(OC)cc34)n2)c1	inconclusive: 39.8 µM [inhibitor, partial curve]	
Cc1nnc(N2CCOCC2)c2nn(-c3cccc(Cl)c3)c(C)c12		inactive: -0.0073%
O=C(CSc1nnc(-c2ccc(O)cc2)o1)Nc1ccccc1Br		inactive: -2.61%
CCCCNC(=O)CCCn1c(=O)[nH]c2ccc(Br)cc2c1=O		inactive: 1.23%
CCOC(=O)/C=C1/N(C)c2ccccc2C1(C)C		inactive: -6.67%
CCOC(=O)c1cccc(NC(=O)CCc2c(C)nn(-c3ccc(N4CCOCC4)nn3)c2C)c1		inactive: 20.5%
C=CCOc1ccc(C(=O)Nc2ccccc2C(=O)N2CCCC2)cc1	inconclusive: 2.82 µM [inhibitor, partial curve]	

# Another view of 2 compounds above:
Structure (SMILES)	Potency	activity change, negative = inhibition
O=C(O)CCN1C(=O)S/C(=C\c2cccnc2)C1=O	inconclusive: 2.82 µM [inhibitor, full curve, poor fit]	
CCCCNC(=O)CCCn1c(=O)[nH]c2ccc(Br)cc2c1=O		inactive: 1.23%

# The list continues.

Structure (SMILES),Potency,"activity change, negative = inhibition"
CCCCCCn1c(N2CCN(c3cccc(Cl)c3)CC2)nc2c1c(=O)[nH]c(=O)n2C,"inconclusive: 35.5 µM [inhibitor, single point]",
CC(=O)OCC1=C(C(=O)O)N2C(=O)C(NC(=O)c3ccc(COc4cccc(Cl)c4Cl)o3)C2SC1 (stereo unspecified),"inconclusive: 39.8 µM [inhibitor, single point]",
COc1ccc(NC(=O)CSc2nc(-c3ccco3)nc3cc(=O)[nH]n23)cc1Cl,,inactive: -22.3%
Cc1sc2nc(CSCC(=O)N(C)CC(=O)Nc3ccc(F)cc3)[nH]c(=O)c2c1C,"inconclusive: 3.98 µM [inhibitor, partial curve]",
CCc1ccc(NS(=O)(=O)c2ccc3[nH]cc(C(=O)N(C)Cc4ccco4)c(=O)c3c2)cc1,"inconclusive: 2.51 µM [inhibitor, single point]",
O=C(Nc1nc(-c2ccc3ccccc3c2)cs1)C1CCN(S(=O)(=O)c2cccs2)CC1,,inactive: -3.17%
CC(C)CN(CCNC(=O)c1cn(C)c2ccc(S(=O)(=O)N3CCCC3)cc2c1=O)CC(C)C,"inconclusive: 0.631 µM [inhibitor, full curve, poor fit]",
O=C(Nc1ccc2ccccc2c1)c1ccc(Br)o1,"inconclusive: 1.12 µM [inhibitor, full curve, poor fit]",
CCOc1ccccc1NC(c1nnc(-c2ccccc2)o1)c1ccc(F)cc1Cl (stereo unspecified),,inactive: -3.97%
CC1CC(C)CN(CCCNC(=O)c2cc3c(s2)-c2ccccc2OC3)C1 (stereo unspecified),"inconclusive: 35.5 µM [inhibitor, single point]",
CCn1c(O)c(C=Nc2ccccc2)sc1=S,,inactive: -7.81%
COc1ccccc1-n1cnc2c(c1=O)c1nc3ccccc3nc1n2-c1ccc(C)cc1,"inconclusive: 39.8 µM [inhibitor, single point]",
Cc1ccc(O)c(-c2cc(C(F)(F)C(F)F)nc(-c3ccccc3)n2)c1,"inconclusive: 0.794 µM [inhibitor, partial curve, poor fit]",
Cc1ccc(OCCCSc2nc(-c3ccc(C(C)(C)C)cc3)nc3cc(=O)[nH]n23)cc1C,"inconclusive: 35.5 µM [inhibitor, single point]",
COc1ccc(C(=O)Nc2cc(C(C)=O)c(/C=C/N(C)C)oc2=O)cc1,"inconclusive: 6.31 µM [inhibitor, single point]",
O=C(NC(=S)N1CCN(C/C=C/c2ccccc2)CC1)c1ccco1,,inactive: -2.44%
COc1ccc(C=C2C(=O)OC(C)(C)OC2=O)cc1OC,"inconclusive: 7.94 µM [inhibitor, full curve, poor fit]",
Cc1c(CCC(=O)O)c(=O)oc2cc(O)ccc12,active: 28.2 µM,
COc1ccc(CN2CCCC(C(=O)N3CCCC3)C2)c(OC)c1 (stereo unspecified),"inconclusive: 0.708 µM [inhibitor, single point]",
CCCC[C@@H]1C=C(C(=O)O)[C@H](c2ccc(Cl)c(Cl)c2)N1S(=O)(=O)c1ccc(C)cc1,"inconclusive: 39.8 µM [inhibitor, single point]",
Cc1[nH]c2ccccc2c1/C=N/NC(=O)c1cccc(F)c1,,inactive: -26.6%
CCOc1ccccc1NC(=O)c1c(NCc2sccc2C)sc2c1CCC(C)C2 (stereo unspecified),"inconclusive: 3.55 µM [inhibitor, single point]",
S=c1nc(-c2ccccc2Br)[nH][nH]1,"inconclusive: 8.91 µM [inhibitor, partial curve]",
O=C(Nc1ccc(Br)cc1)c1cccc(N2C(=O)C3C4C=CC(C4)C3C2=O)c1 (stereo unspecified),"inconclusive: 0.708 µM [inhibitor, full curve, poor fit]",

Structure (SMILES),Potency,"activity change, negative = inhibition"
COc1cccc(/C=N/NC(=O)c2cc3cc([N+](=O)[O-])ccc3s2)c1O,"inconclusive: 12.6 µM [inhibitor, partial curve]",
CCOC(=O)CNC(=O)c1ccc(Br)s1,"inconclusive: 2 µM [inhibitor, full curve, poor fit]",
CC(=O)Nc1ccc(OCCCNC(=O)c2c(-c3ccccc3)noc2C)cc1,,inconclusive: -36.2% [inhibitor]
CC[C@@H](CCC=C(C)C)C(=O)N(Cc1ccccc1)c1ccccc1,"inconclusive: 28.2 µM [inhibitor, single point]",
Nn1c(SCC(=O)NC2CCCCC2)nnc1-c1ccccc1F,,inactive: -3.82%
Nc1ccc2nc3c(=O)[nH]c(=S)[nH]c3nc2c1,"inconclusive: 10 µM [inhibitor, partial curve, poor fit]",
Cc1cc(C)nc(N2CCCC(CCC(=O)NCc3ccc(F)c(F)c3)C2)n1 (stereo unspecified),,inactive: -9.04%
O=c1cc(O)c2sc(Nc3ccc(F)c(Cl)c3)nc2[nH]1,"inconclusive: 39.8 µM [inhibitor, single point]",
COc1ccccc1Cc1nc2ccccc2nc1SCC(=O)NCc1ccccc1Cl,,inactive: 1.6%
O=S(=O)(c1cccc(C(F)(F)F)c1)N1CCC(c2cc(-c3cccc4ccccc34)n[nH]2)CC1,,inactive: -8.07%
O=C(Cc1ccc(F)cc1)NCCc1ccc(F)cc1,,inconclusive: -108% [inhibitor] [at 0.501 µM]
O=C1CC(C(=O)Nc2cccc3ccccc23)C2(CCCC2)O1 (stereo unspecified),"inconclusive: 39.8 µM [inhibitor, single point]",
COc1ccccc1Nc1ncc(C(=O)Nc2ccc(OC)c(OC)c2)c2ccccc12,inactive,
COc1ccc(C(=O)n2cnc(N)n2)cc1,active: 2.24 µM,
O=c1c(CCc2ccccc2)nc2cnc(N3CCOCC3)nc2n1Cc1ccc(F)cc1,"inconclusive: 39.8 µM [inhibitor, single point]",
CC(C)(C)C(=O)Nc1cc(NC(=O)C(C)(C)C)cc(C(=O)NNC(=O)c2ccncc2)c1,"inconclusive: 22.4 µM [inhibitor, single point]",
O=C(O)C1C2CCC(O2)C1C(=O)NCc1ccncc1 (stereo unspecified),"inconclusive: 0.891 µM [inhibitor, single point]",
O=C(Oc1coc(CSc2nnc(NC(=O)C3CC3)s2)cc1=O)c1c(F)cccc1F,"inconclusive: 39.8 µM [inhibitor, single point]",
N=C(N)SCCN,"inconclusive: 28.2 µM [inhibitor, single point]",
O=C(NC(=S)Nc1nc2c(s1)CCCC2)c1ccc(C(=O)c2ccccc2)cc1,,inactive: 0.76%
CCCc1cc(=O)oc2c(CN3CCOCC3)c(O)ccc12,"inconclusive: 28.2 µM [inhibitor, single point]",
CCOC(=O)c1c(C2CC2)csc1NC(C)=O,"inconclusive: 39.8 µM [inhibitor, single point]",
CCn1c(=N)n(CC(=O)C(C)(C)C)c2ccccc21,"inconclusive: 7.08 µM [inhibitor, single point]",

# Reference: PubChem BioAssay AID504327 (National Center for Advancing Translational Sciences (NCATS), 2011)
